Test results taken from the supplement of paper PMC5949888.
Most values lie at the floor of the assay. Slopes are relative: functional sequences can read slightly below zero.

These substances were tested on Saccharomyces cerevisiae PS128 hsf1 delta, HSF1(1-493) fusion (assay: growth estimate (transactivation domain function in HSF1 fusion, heat-shock survival) (a.u. (slope of normalised read count over time)); higher = stronger growth at 37°C, i.e. more transactivation activity). Settings: library: random library.
Substance GDGYSKEIYFYK has a growth estimate of under -0.25. RPGGQLTGVHSMTIGRDRRP gave a growth estimate of under -0.25. QMSS was tested, and the growth estimate was under -0.25. Work on LGLNRIVGGAPVGLCNP yielded a growth estimate of under -0.25. LGTSKCFGLDVGSVWCPTRR gave a growth estimate of under -0.25. Work on LTWWAQVLQNL yielded a growth estimate of under -0.25. Substance PGNGRIWLGYYHEGLRLVRN has a growth estimate of under -0.25. RIVR was tested, and the growth estimate was under -0.25. GCFRQYAF was tested, and the growth estimate was under -0.25. VGSNRVQRR gave a growth estimate of under -0.25. Work on AGKGV yielded a growth estimate of under -0.25. DTWIIGSLHMLV was tested, and the growth estimate was under -0.25. With RGIISCIEKHRHIDRFRFPI the growth estimate was under -0.25. LSCLAVRGWMMDKRELLEVV gave a growth estimate of under -0.25. In the case of AGYEKLLYSAVCARSDH, the growth estimate is reported as under -0.25. In the case of YVVVSKFS, the growth estimate is reported as under -0.25. With VYYASLCLG the growth estimate was under -0.25. RAEAPVRQARERTTEKLRAP gave a growth estimate of under -0.25. LRPVFLKGTLGM gave a growth estimate of under -0.25. Work on VSFKSVCASQVVLPWQQHRS yielded a growth estimate of under -0.25. Substance PIRFTACNFIIKRCGELPGS has a growth estimate of under -0.25. With ATRRSRSCGSAPS the growth estimate was under -0.25. ELRRFLLGLMEDRICSNTRS gave a growth estimate of -0.243. AVPCSFLWGSASYFNSKAIM showed a growth estimate of -0.243. For SLLNVRELPPAPRR, the growth estimate was under -0.25. In the case of DEWILVGDPVTPIGYGQFHS, the growth estimate is reported as under -0.25. GKQICVGRAYRSGTCPNPQG gave a growth estimate of under -0.25. For FTCNSGPGAHGIIIGIDCVC, the growth estimate was under -0.25. In the case of RIKGLRPETRLVAAGCTFSL, the growth estimate is reported as under -0.253. In the case of MSLSVRSSRQIPVG, the growth estimate is reported as under -0.25. SAYIVDHLRVWNSA gave a growth estimate of under -0.25. FGQQSKSKRVGC showed a growth estimate of under -0.25. With SGTLWTR the growth estimate was under -0.25. FHLTARLREVQFSSVPEVL showed a growth estimate of under -0.25. Work on GCALIGLIKDHMDVRTTRAS yielded a growth estimate of under -0.25. In the case of EPLY, the growth estimate is reported as under -0.25. FRKNLLLLLRNWLPYAECRQ gave a growth estimate of under -0.25. Substance SGSGIRFRVHGTII has a growth estimate of under -0.25. With GVMSHSESAEVASPQRRAKR the growth estimate was under -0.25. Work on NRLTTTVRPYRIGQPTGSYH yielded a growth estimate of under -0.25. Substance DRNPDRVVRTLSEG has a growth estimate of under -0.25. PDATCQKRA gave a growth estimate of under -0.25. Substance FGCGPWQYFLGNRDALSKFG has a growth estimate of under -0.25. Work on AKDELVRLSC yielded a growth estimate of under -0.25. Substance TGIGDEPTMGLLPYPWAYMD has a growth estimate of under -0.25. With DRWRNSMRVK the growth estimate was under -0.25. RPGRGLWADVKAVKQLLNAR showed a growth estimate of -0.242. Work on RIMFKLRYSMANHQIAALSL yielded a growth estimate of under -0.25. Work on DNGSRCKGKVPPLKKAARNN yielded a growth estimate of under -0.25. CHRFINTLLSRMGSCYPAKR gave a growth estimate of under -0.25. For KRRSMKR, the growth estimate was under -0.25. Work on PAV yielded a growth estimate of under -0.25. With FGDSQPRGLG the growth estimate was under -0.25. Substance MLQPRRCC has a growth estimate of under -0.25. In the case of EGMYAA, the growth estimate is reported as under -0.25. RDLGILSVRYAQRKVNRKGY gave a growth estimate of under -0.25. HIIRCDIFARL was tested, and the growth estimate was under -0.25. For RFPVGTGWPCVRKYGELTPS, the growth estimate was under -0.25. For FISQFR, the growth estimate was under -0.25. PVWLPTIVAFGCTIGPKPRH was tested, and the growth estimate was under -0.25. Substance DRSTTKGFRVSRQRFAMIIR has a growth estimate of under -0.25. With ANSVFRGR the growth estimate was under -0.25. With MCVEYSAIGASAQAKNVGRQ the growth estimate was under -0.25. Work on YVLVCLGTASPV yielded a growth estimate of under -0.25. Substance VRPKRIPGASLMSGTETSYR has a growth estimate of under -0.25. With VMETGRTTPIGYPRSTINGA the growth estimate was under -0.25. KKCSVMCRGLSRK gave a growth estimate of under -0.25. For PSLPVAPLNDTFLIMFYCRG, the growth estimate was under -0.25. With SSY the growth estimate was under -0.25. Substance SLRD has a growth estimate of under -0.25. Substance PECTNVSPWVPRLPSELSVG has a growth estimate of under -0.25. For IKLRLGSKLGEQYVGVCWTL, the growth estimate was under -0.25. Substance YMGLRKCDVDTDTVMLCESS has a growth estimate of under -0.25. TGRHRSRADCPSQASANMTL gave a growth estimate of under -0.25. Substance GERVRDSSGHTRNGIHGDDD has a growth estimate of under -0.25. In the case of SHGVRVLDCQGKS, the growth estimate is reported as -0.245. Work on PIERFGDGLIRPATLKISFR yielded a growth estimate of under -0.25. Substance LLRFILDGCYGLAHLSAKVS has a growth estimate of under -0.25. IVPE gave a growth estimate of under -0.25. GCRQHLHYGVAKQGYFRA was tested, and the growth estimate was under -0.25. ASPWSAR gave a growth estimate of under -0.25. Work on SGSFLVSLHGGLHKRYHVHD yielded a growth estimate of -0.241. NSVVINVN showed a growth estimate of under -0.25. Work on QNQFVCLSNAWPIGRRLWTR yielded a growth estimate of under -0.25. Work on RSTVVWDINHVTRMLDWDFR yielded a growth estimate of -0.2. In the case of RLSRCLRAARKRLVRGLGEE, the growth estimate is reported as under -0.25. In the case of AENRFGYRFNEVG, the growth estimate is reported as under -0.25. TTGEGAMDVWADVTNPG was tested, and the growth estimate was -0.243. For TAHAIKSPMGHVSIYVESLA, the growth estimate was under -0.25. TPSRSKQKVIKVNQICQAVV gave a growth estimate of under -0.25. SRPVIYASSRQNLRGICLYG was tested, and the growth estimate was under -0.25. FPSPHTSMLLYPLRRHCGEQ was tested, and the growth estimate was under -0.25. With TKRSDVQILTPCVGRSPLFA the growth estimate was under -0.25. TRPVRIVLLKG was tested, and the growth estimate was under -0.25. SKCHIAYMDRADRFLNIDLI was tested, and the growth estimate was under -0.25. WTREVTRTGQSRAWVQSIAQ gave a growth estimate of under -0.25. Work on PLLELGPPG yielded a growth estimate of under -0.25. WVAIGVTRWVHVHFGLCLTR was tested, and the growth estimate was under -0.25.
